No constants are given. Whether binding was seen depends on the method and setting. Binding seen in cells or lysates may run through a third protein. These calls come from enrichment with a bait or labelling near it, and not all partners need be listed. Each block holds one molecule with its values, some of them ahead of it.
Target: T1, full-length Tmem127-BirA (UniProt Q8BGP5)
T1 sequence: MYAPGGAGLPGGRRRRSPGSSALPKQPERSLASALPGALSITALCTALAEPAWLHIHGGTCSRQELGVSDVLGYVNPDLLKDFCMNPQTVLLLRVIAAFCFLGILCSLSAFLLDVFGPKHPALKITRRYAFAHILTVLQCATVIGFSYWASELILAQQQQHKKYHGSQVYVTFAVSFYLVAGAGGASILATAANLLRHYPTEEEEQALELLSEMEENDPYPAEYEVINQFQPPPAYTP
Test: proximity labelling

Sequences of proteins named here, by UniProt entry; tags and fusion partners are left off. Residues count along the entry.
UniProt P13597, residues 28-537: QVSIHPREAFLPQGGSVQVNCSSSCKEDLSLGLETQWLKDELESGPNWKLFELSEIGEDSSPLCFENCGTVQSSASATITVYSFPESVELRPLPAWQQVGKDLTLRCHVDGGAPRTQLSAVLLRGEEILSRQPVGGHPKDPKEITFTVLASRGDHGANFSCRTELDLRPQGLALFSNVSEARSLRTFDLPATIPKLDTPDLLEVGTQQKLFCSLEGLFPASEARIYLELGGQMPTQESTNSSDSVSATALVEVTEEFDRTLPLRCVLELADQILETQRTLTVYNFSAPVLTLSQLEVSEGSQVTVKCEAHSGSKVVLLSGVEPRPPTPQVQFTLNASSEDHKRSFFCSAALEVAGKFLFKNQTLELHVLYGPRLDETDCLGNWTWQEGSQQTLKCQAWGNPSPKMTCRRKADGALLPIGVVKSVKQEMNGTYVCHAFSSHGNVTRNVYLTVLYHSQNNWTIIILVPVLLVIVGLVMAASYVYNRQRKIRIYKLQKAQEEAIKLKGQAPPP
UniProt P31041, residues 20-218: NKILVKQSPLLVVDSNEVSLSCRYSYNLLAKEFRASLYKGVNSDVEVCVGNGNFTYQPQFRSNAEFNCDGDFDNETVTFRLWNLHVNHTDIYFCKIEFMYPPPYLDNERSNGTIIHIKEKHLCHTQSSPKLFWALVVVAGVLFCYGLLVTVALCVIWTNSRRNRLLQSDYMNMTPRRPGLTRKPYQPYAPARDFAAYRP
UniProt P22646, residues 22-189: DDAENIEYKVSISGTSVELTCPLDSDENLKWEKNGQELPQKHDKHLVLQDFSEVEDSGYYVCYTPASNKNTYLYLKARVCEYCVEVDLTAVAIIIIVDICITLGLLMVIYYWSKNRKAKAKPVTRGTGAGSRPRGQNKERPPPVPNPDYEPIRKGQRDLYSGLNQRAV
UniProt P63044: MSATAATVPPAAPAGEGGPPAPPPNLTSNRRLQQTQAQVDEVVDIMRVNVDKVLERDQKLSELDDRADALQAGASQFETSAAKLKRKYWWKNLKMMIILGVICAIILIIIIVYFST
UniProt Q3UVG3: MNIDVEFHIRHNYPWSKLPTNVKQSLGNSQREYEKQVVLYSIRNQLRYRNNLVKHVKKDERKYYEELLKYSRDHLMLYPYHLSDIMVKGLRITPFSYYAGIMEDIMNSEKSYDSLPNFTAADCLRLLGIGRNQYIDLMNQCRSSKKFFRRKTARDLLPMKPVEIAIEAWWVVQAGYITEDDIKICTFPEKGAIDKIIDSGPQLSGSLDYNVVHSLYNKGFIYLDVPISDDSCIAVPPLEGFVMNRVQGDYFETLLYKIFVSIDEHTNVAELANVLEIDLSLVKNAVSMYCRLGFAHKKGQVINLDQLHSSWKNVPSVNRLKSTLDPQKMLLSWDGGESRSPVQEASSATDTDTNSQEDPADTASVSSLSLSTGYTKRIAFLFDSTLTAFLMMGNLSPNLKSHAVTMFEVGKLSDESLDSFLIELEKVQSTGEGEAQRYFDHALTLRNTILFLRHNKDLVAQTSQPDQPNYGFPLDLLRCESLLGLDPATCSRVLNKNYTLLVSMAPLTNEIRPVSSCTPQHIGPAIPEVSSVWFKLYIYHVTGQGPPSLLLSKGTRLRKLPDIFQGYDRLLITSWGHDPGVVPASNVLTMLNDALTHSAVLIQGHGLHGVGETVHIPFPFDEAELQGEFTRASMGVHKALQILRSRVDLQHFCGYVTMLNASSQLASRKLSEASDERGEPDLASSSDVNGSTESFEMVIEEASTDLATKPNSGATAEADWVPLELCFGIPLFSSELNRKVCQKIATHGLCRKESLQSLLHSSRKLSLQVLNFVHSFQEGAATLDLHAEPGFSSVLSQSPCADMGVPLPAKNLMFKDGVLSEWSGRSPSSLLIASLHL
UniProt P63024: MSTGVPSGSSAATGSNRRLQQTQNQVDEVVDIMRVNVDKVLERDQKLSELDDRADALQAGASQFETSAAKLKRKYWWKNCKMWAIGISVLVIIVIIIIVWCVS
UniProt P01731, residues 28-247: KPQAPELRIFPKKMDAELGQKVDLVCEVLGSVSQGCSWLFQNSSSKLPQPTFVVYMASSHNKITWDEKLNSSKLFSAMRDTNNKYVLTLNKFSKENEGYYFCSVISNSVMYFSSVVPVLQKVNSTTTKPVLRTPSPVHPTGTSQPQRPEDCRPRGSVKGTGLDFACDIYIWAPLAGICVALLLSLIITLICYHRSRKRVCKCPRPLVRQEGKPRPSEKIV
UniProt P24161, residues 22-164: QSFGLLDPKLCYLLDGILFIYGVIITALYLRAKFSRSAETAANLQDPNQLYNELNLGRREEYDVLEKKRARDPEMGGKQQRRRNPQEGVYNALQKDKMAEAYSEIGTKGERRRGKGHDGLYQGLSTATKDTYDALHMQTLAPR
UniProt P08920, residues 23-344: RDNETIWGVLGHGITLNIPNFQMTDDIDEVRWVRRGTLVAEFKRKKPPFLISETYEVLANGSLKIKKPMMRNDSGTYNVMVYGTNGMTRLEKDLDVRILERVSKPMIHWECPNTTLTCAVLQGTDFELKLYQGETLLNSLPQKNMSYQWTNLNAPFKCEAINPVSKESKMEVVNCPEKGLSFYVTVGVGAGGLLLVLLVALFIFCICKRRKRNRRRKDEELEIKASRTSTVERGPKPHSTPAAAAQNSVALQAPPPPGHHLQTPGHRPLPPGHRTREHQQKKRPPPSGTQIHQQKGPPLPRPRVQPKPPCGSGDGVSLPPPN
UniProt P09793, residues 36-223: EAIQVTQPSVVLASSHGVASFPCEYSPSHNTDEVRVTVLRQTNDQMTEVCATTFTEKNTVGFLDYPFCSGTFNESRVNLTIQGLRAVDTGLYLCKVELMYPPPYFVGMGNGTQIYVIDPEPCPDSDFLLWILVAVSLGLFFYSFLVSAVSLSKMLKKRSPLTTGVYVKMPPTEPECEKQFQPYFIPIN
UniProt P41272, residues 24-250: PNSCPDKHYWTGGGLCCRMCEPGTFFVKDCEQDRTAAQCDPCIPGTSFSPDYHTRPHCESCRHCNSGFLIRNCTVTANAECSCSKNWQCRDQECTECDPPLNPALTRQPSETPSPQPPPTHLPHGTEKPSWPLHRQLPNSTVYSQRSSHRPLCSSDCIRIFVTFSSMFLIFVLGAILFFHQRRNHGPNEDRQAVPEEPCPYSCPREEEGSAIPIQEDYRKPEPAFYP

binding: binds
Molecule: Icam1 (from UniProt P13597 28-537)

binding: binds
Molecule: CD28 (from UniProt P31041 20-218)

binding: binds
Molecule: CD3ε (from UniProt P22646 22-189)

binding: binds
Molecule: Vamp2 (from UniProt P63044 1-116)

binding: binds
Molecule: Fam91a1 (from UniProt Q3UVG3 1-837)

binding: binds
Molecule: Vamp3 (from UniProt P63024 1-103)

binding: binds
Molecule: CD8α (from UniProt P01731 28-247)

binding: binds
Molecule: CD3ζ (from UniProt P24161-1 22-164)

binding: binds
Molecule: CD2 (from UniProt P08920 23-344)

binding: binds
Molecule: CD44 (mouse (endogenous in CD8+ T cells))

binding: binds
Molecule: CTLA-4 (from UniProt P09793 36-223)

binding: binds
Molecule: CD27 (from UniProt P41272 24-250)

binding: binds
B1: LAT (protein, UniProt O54957 1-242)
chain: MEADALSPVGLGLLLLPFLVTLLAALCVRCRELPVSYDSTSTESLYPRSILIKPPQITVPRTPAVSYPLVTSFPPLRQPDLLPIPRSPQPLGGSHRMPSSQQNSDDANSVASYENQEPACKNVDADEDEDDYPNGYLVVLPDSSPAAVPVVSSAPVPSNPDLGDSAFSVESCEDYVNVPESEESAEASLDGSREYVNVSPEQQPVTRAELASVNSQEVEDEGEEEGVDGEEAPDYENLQELN

binding: binds
B2: H2-T23 (protein, UniProt P06339 21-357)
MHC heavy: SPHSLRYFTTAVSRPGLGEPRFIIVGYVDDTQFVRFDSDAENPRMEPRARWIEQEGPEYWERETWKARDMGRNFRVNLRTLLGYYNQSNDESHTLQWMYGCDVGPDGRLLRGYCQEAYDGQDYISLNEDLRSWTANDIASQISKHKSEAVDEAHQQRAYLQGPCVEWLHRYLRLGNETLQRSDPPKAHVTHHPRSEDEVTLRCWALGFYPADITLTWQLNGEELTQDMELVETRPAGDGTFQKWAAVVVPLGKEQYYTCHVYHEGLPEPLTLRWEPPPSTVSNMVIIAVLVVLGAVIILGAVVAFVMKRRRHIGVKGCYAHVLGSKSFQTSDWPQKA

binding: binds
B3: CD3δ (protein, UniProt P04235 22-173)
chain: FKIQVTEYEDKVFVTCNTSVMHLDGTVEGWFAKNKTLNLGKGVLDPRGIYLCNGTEQLAKVVSSVQVHYRMCQNCVELDSGTMAGVIFIDLIATLLLALGVYCFAGHETGRPSGAAEVQALLKNEQLYQPLRDREDTQYSRLGGNWPRNKKS

binding: binds
B4: IL-27ra (receptor, UniProt O70394 25-623)
chain: TRPHGSPGPLQCYSVGPLGILNCSWEPLGDLETPPVLYHQSQKYHPNRVWEVKVPSKQSWVTIPREQFTMADKLLIWGTQKGRPLWSSVSVNLETQMKPDTPQIFSQVDISEEATLEATVQWAPPVWPPQKVLICQFRYKECQAETWTRLEPQLKTDGLTPVEMQNLEPGTCYQVSGRCQVENGYPWGEWSSPLSFQTPFLDPEDVWVSGTVCETSGKRAALLVWKDPRPCVQVTYTVWFGAGDITTTQEEVPCCKSPVPAWMEWAVVSPGNSTSWVPPTNLSLVCLAPESAPCDVGVSSADGSPGIKVTWKQGTRKPLEYVVDWAQDGDSLDKLNWTRLPPGNLSTLLPGEFKGGVPYRITVTAVYSGGLAAAPSVWGFREELVPLAGPAVWRLPDDPPGTPVVAWGEVPRHQLRGQATHYTFCIQSRGLSTVCRNVSSQTQTATLPNLHLGSFKLWVTVSTVAGQGPPGPNLSLHLPDNRIRWKALPWFLSLWGLLLMGCGLSLASTRCLQARCLHWRHKLLPQWIWERVPDPANSNSGQPYIKEVSLPQPPKDGPILEVEEVELQPVVESPKASAPIYSGYEKHFLPTPEELGLLV

binding: binds
B5: Icos (protein, UniProt Q9WVS0 21-200)
chain: EINGSADHRMFSFHNGGVQISCKYPETVQQLKMRLFREREVLCELTKTKGSGNAVSIKNPMLCLYHLSNNSVSFFLNNPDSSQGSYYFCSLSIFDPPPFQERNLSGGYLHIYESQLCCQLKLWLPVGCAAFVVVLLFGCILIIWFSKKKYGSSVHDPNSEYMFMAAVNTNKKSRLAGVTS

binding: binds
B6: CD3γ (protein, UniProt P11942 23-182)
chain: QTNKAKNLVQVDGSRGDGSVLLTCGLTDKTIKWLKDGSIISPLNATKNTWNLGNNAKDPRGTYQCQGAKETSNPLQVYYRMCENCIELNIGTISGFIFAEVISIFFLALGVYLIAGQDGVRQSRASDKQTLLQNEQLYQPLKDREYDQYSHLQGNQLRKK

binding: binds
B7: common gamma chain (γc), endogenous in CD8+ T cells (receptor, UniProt P34902 23-369)
chain: WSSKVLMSSANEDIKADLILTSTAPEHLSAPTLPLPEVQCFVFNIEYMNCTWNSSSEPQATNLTLHYRYKVSDNNTFQECSHYLFSKEITSGCQIQKEDIQLYQTFVVQLQDPQKPQRRAVQKLNLQNLVIPRAPENLTLSNLSESQLELRWKSRHIKERCLQYLVQYRSNRDRSWTELIVNHEPRFSLPSVDELKRYTFRVRSRYNPICGSSQQWSKWSQPVHWGSHTVEENPSLFALEAVLIPVGTMGLIITLIFVYCWLERMPPIPPIKNLEDLVTEYQGNFSAWSGVSKGLTESLQPDYSERFCHVSEIPPKGGALGEGPGGSPCSLHSPYWPPPCYSLKPEA

binding: binds
B8: CD86 (protein, UniProt P42082 24-309)
chain: VSVETQAYFNGTAYLPCPFTKAQNISLSELVVFWQDQQKLVLYEHYLGTEKLDSVNAKYLGRTSFDRNNWTLRLHNVQIKDMGSYDCFIQKKPPTGSIILQQTLTELSVIANFSEPEIKLAQNVTGNSGINLTCTSKQGHPKPKKMYFLITNSTNEYGDNMQISQDNVTELFSISNSLSLSFPDGVWHMTVVCVLETESMKISSKPLNFTQEFPSPQTYWKEITASVTVALLLVMLLIIVCHKKPNQPSRPSNTASKLERDSNADRETINLKELEPQIASAKPNAE

binding: binds
B9: Slamf1 (protein, UniProt Q9QUM4 25-343)
chain: TGGGVMDCPVILQKLGQDTWLPLTNEHQINKSVNKSVRILVTMATSPGSKSNKKIVSFDLSKGSYPDHLEDGYHFQSKNLSLKILGNRRESEGWYLVSVEENVSVQQFCKQLKLYEQVSPPEIKVLNKTQENENGTCSLLLACTVKKGDHVTYSWSDEAGTHLLSRANRSHLLHITLSNQHQDSIYNCTASNPVSSISRTFNLSSQACKQESSSESSPWMQYTLVPLGVVIIFILVFTAIIMMKRQGKSNHCQPPVEEKSLTIYAQVQKSGPQEKKLHDALTDQDPCTTIYVAATEPAPESVQEPNPTTVYASVTLPES

binding: binds
B10: Ifngr1 (receptor, UniProt P15261 26-477)
chain: ALTSTEDPEPPSVPVPTNVLIKSYNLNPVVCWEYQNMSQTPIFTVQVKVYSGSWTDSCTNISDHCCNIYEQIMYPDVSAWARVKAKVGQKESDYARSKEFLMCLKGKVGPPGLEIRRKKEEQLSVLVFHPEVVVNGESQGTMFGDGSTCYTFDYTVYVEHNRSGEILHTKHTVEKEECNETLCELNISVSTLDSRYCISVDGISSFWQVRTEKSKDVCIPPFHDDRKDSIWILVVAPLTVFTVVILVFAYWYTKKNSFKRKSIMLPKSLLSVVKSATLETKPESKYSLVTPHQPAVLESETVICEEPLSTVTAPDSPEAAEQEELSKETKALEAGGSTSAMTPDSPPTPTQRRSFSLLSSNQSGPCSLTAYHSRNGSDSGLVGSGSSISDLESLPNNNSETKMAEHDPPPVRKAPMASGYDKPHMLVDVLVDVGGKESLMGYRLTGEAQELS

binding: binds
B11: IL-2rb (receptor, UniProt P16297 27-539)
chain: AVKNCSHLECFYNSRANVSCMWSHEEALNVTTCHVHAKSNLRHWNKTCELTLVRQASWACNLILGSFPESQSLTSVDLLDINVVCWEEKGWRRVKTCDFHPFDNLRLVAPHSLQVLHIDTQRCNISWKVSQVSHYIEPYLEFEARRRLLGHSWEDASVLSLKQRQQWLFLEMLIPSTSYEVQVRVKAQRNNTGTWSPWSQPLTFRTRPADPMKEILPMSWLRYLLLVLGCFSGFFSCVYILVKCRYLGPWLKTVLKCHIPDPSEFFSQLSSQHGGDLQKWLSSPVPLSFFSPSGPAPEISPLEVLDGDSKAVQLLLLQKDSAPLPSPSGHSQASCFTNQGYFFFHLPNALEIESCQVYFTYDPCVEEEVEEDGSRLPEGSPHPPLLPLAGEQDDYCAFPPRDDLLLFSPSLSTPNTAYGGSRAPEERSPLSLHEGLPSLASRDLMGLQRPLERMPEGDGEGLSANSSGEQASVPEGNLHGQDQDRGQGPILTLNTDAYLSLQELQAQDSVHLI

binding: binds
B12: Vamp5 (protein, UniProt Q9Z2P8 1-102)
chain: MAGKELKQCQQQADEVTEIMLNNFDKVLERHGKLAELEQRSDQLLDMSSAFSKTTKTLAQQKRWENIRCRVYLGLAVAVGLLIILIVLLVVFLPSGGDSSKP

binding: binds
B13: IL-4R (receptor, UniProt P16382 26-810)
chain: IKVLGEPTCFSDYIRTSTCEWFLDSAVDCSSQLCLHYRLMFFEFSENLTCIPRNSASTVCVCHMEMNRPVQSDRYQMELWAEHRQLWQGSFSPSGNVKPLAPDNLTLHTNVSDEWLLTWNNLYPSNNLLYKDLISMVNISREDNPAEFIVYNVTYKEPRLSFPINILMSGVYYTARVRVRSQILTGTWSEWSPSITWYNHFQLPLIQRLPLGVTISCLCIPLFCLFCYFSITKIKKIWWDQIPTPARSPLVAIIIQDAQVPLWDKQTRSQESTKYPHWKTCLDKLLPCLLKHRVKKKTDFPKAAPTKSLQSPGKAGWCPMEVSRTVLWPENVSVSVVRCMELFEAPVQNVEEEEDEIVKEDLSMSPENSGGCGFQESQADIMARLTENLFSDLLEAENGGLGQSALAESCSPLPSGSGQASVSWACLPMGPSEEATCQVTEQPSHPGPLSGSPAQSAPTLACTQVPLVLADNPAYRSFSDCCSPAPNPGELAPEQQQADHLEEEEPPSPADPHSSGPPMQPVESWEQILHMSVLQHGAAAGSTPAPAGGYQEFVQAVKQGAAQDPGVPGVRPSGDPGYKAFSSLLSSNGIRGDTAAAGTDDGHGGYKPFQNPVPNQSPSSVPLFTFGLDTELSPSPLNSDPPKSPPECLGLELGLKGGDWVKAPPPADQVPKPFGDDLGFGIVYSSLTCHLCGHLKQHHSQEEGGQSPIVASPGCGCCYDDRSPSLGSLSGALESCPEGIPPEANLMSAPKTPSNLSGEGKGPGHSPVPSQTTEVPVGALGIAVS
